{"sequences": {"note": "Protein sequences, listed by entry. Tags and fused reporters are not part of them. Lines headed by an entry give the natural chain unless they say otherwise; changes in a name come on top. Chains listed by the source or under a name are the forms on record and can include a tag or linker.", "CD44 (erythroid isoform CD44H) (human (endogenous in red cells)) (P16070, form named)": "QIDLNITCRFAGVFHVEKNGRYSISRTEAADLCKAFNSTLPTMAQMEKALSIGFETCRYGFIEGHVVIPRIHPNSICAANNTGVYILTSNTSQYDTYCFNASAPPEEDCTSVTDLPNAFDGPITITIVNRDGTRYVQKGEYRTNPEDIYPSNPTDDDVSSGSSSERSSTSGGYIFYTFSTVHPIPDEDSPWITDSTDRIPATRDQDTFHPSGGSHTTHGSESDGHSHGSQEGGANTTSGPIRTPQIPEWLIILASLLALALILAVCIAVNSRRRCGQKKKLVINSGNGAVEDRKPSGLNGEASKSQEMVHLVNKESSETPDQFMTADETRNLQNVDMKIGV"}, "source": "paper PMC7366909", "key": {"[1]": {"biological_target": "CD44 (erythroid isoform CD44H) (human (endogenous in red cells)) (UniProt P16070)", "experiment": "co-IP; immunoprecipitation from normal MAM-positive red cell membranes with immunoblotting (anti-CD44 BRIC222 and KZ-1, anti-MAM eluates); which partner was precipitated is not stated"}, "[2]": {"biological_target": "CD44 (erythroid isoform CD44H) (human (endogenous in red cells)) (UniProt P16070)", "experiment": "MAIEA (monoclonal antibody-specific immobilisation of erythrocyte antigens, ELISA format); intact red cells incubated with human anti-MAM and a mouse monoclonal antibody (consecutive 1 h incubations at 37 °C), lysed and solubilised in Triton-X buffer; complexes captured on goat anti-mouse IgG and detected with anti-human IgG peroxidase; adsorbance ratio of MAM-positive to MAM-negative cells above 2.0 is positive"}}, "note": "Results are given in words; binding and its absence hold for the method and conditions named. For some assays here: In cells and extracts the contact can be indirect. Some entries that bind do so weakly or less than the wild type."}
{"binder": "epithelial membrane protein 3 (EMP3) (protein, UniProt P54852 1-163) MSLLLLVVSALHILILILLFVATLDKSWWTLPGKESLNLWYDCTWNNDTKTWACSNVSENGWLKAVQVLMVLSLILCCLSFILFMFQLYTMRRGGLFYATGLCQLCTSVAVFTGALIYAIHAEEILEKHPRGGSFGYCFALAWVAFPLALVSGIIYIHLRKRE", "values": [{"measurement": "binding", "setting": "[1]", "value": "binds"}, {"measurement": "binding", "setting": "[2]", "value": "binds"}]}
